{
  "sequences": {"note": "Amino acid sequences for entries named in this document (tags omitted). Residues count along the entry.", "UniProt P60615, residues 22-95": "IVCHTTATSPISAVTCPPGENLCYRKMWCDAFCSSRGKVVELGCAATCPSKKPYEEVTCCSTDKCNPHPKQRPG", "UniProt P36544, residues 23-502": "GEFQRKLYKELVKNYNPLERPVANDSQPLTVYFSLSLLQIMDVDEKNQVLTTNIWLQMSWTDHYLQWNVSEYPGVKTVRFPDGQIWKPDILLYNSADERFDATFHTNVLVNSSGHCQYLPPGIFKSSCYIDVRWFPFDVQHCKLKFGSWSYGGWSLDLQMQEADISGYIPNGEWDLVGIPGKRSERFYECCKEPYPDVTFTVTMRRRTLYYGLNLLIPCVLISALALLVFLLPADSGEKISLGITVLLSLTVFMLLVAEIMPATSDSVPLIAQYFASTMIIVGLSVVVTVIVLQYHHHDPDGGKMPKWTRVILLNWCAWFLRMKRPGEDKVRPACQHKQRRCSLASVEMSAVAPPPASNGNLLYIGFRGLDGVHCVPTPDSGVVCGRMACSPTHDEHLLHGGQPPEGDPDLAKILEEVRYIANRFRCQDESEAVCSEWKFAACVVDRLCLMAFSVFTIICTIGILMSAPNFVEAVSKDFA"},
  "source": "paper PMC4530945",
  "molecular_target": "α-Bungarotoxin (Bungarus multicinctus) (UniProt P60615)",
  "assay": "affinity purification with mass spectrometry; only the target purified",
  "note": "These are yes or no findings as the source states them, for the method shown. In cells and extracts the contact can be indirect. These calls come from enrichment with a bait or labelling near it, and not all partners need be listed.",
  "data": [
    {"substance": "α7-nicotinic acetylcholine receptor (from UniProt P36544 23-502)", "values": [
      {"measurement": "binding", "value": "binds"}
    ]}
  ]
}
